For the assay, the target named is T1, Special AT-rich binding protein 2 (SATB2), GFP-tagged (human) (UniProt Q9UPW6).
T1 sequence: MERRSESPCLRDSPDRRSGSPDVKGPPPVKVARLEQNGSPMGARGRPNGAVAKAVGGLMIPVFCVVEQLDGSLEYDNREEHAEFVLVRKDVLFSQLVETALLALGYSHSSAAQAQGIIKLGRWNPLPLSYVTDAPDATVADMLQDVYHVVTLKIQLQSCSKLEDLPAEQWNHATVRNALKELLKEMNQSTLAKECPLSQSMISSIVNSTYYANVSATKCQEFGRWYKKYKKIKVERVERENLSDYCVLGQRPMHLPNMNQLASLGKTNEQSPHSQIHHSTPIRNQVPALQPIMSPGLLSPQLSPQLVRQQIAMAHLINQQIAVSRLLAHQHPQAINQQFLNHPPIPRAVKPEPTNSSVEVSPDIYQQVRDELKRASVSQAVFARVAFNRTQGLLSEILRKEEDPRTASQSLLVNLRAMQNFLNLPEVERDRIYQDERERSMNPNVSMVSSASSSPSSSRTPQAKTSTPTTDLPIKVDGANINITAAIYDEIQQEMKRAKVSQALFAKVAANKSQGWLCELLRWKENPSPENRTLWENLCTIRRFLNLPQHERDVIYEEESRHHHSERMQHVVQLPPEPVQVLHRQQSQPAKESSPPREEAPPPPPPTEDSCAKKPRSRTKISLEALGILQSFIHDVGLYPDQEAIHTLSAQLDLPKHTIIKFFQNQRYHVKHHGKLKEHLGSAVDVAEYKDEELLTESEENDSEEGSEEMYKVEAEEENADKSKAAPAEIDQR
The assay is described as follows: co-IP; lysate (Pierce IP Lysis Buffer, sonicated) of SATB2-GFP-circ-3×FLAG tagged BEAS-2B cells; Dynabeads Protein G pre-bound to SATB2 or anti-FLAG M2 antibody, overnight at 4 °C, 200 µg lysate protein; western blot. For orientation: In western blotting, separated proteins are transferred to a membrane and probed.

These are yes or no findings as the source states them, for the method shown. In cells and extracts the contact can be indirect. A result given as binding can be weak or reduced; the word gives no strength. Tags and fused reporters may be left off the sequences shown.

Take Lamin (human (endogenous in BEAS-2B)): the binding result is recorded as “binds”.
